According to the supplement of paper PMC11006884:
The targets with a hit were mostly taken out for another list; the other results follow. The data scatter; read single values as rough. The list shows a part of the results, in another mix than the full data.

Protein sequences, listed by entry. Tags and fused reporters are not part of them. Lines headed by an entry give the natural chain unless they say otherwise; changes in a name come on top.
UniProt P56192: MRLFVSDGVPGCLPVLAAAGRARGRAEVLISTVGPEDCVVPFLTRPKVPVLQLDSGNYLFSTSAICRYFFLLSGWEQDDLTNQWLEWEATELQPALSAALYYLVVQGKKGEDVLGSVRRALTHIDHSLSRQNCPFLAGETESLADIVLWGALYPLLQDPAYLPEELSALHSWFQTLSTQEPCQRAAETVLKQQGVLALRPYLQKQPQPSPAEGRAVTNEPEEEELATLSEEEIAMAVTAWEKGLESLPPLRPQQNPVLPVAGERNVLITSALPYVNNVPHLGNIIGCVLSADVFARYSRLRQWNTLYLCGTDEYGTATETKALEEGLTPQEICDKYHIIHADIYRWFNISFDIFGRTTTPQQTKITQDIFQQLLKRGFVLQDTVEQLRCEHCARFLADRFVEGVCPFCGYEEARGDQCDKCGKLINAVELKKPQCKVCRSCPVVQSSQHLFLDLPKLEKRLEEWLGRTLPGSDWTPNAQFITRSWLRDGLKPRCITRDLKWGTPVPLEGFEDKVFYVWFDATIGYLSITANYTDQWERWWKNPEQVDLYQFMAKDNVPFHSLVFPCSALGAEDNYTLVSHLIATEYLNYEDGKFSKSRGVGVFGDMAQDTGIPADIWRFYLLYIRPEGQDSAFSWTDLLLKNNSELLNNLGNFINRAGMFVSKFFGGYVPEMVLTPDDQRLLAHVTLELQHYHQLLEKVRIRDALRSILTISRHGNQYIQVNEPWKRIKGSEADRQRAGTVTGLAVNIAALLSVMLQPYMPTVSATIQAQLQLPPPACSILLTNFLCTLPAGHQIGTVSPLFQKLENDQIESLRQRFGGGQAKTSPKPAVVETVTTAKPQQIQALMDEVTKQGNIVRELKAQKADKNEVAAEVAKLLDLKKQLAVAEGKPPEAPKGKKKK
UniProt P53597: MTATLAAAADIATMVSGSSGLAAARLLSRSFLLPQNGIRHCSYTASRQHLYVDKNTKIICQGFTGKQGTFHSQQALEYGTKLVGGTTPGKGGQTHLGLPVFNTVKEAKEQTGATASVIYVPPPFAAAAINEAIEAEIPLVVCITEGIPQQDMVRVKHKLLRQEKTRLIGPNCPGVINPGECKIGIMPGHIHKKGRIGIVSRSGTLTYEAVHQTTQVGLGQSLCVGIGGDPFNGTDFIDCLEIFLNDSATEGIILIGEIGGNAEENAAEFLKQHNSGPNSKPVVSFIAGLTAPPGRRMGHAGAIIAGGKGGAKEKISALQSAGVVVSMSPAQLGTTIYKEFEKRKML
UniProt P55060: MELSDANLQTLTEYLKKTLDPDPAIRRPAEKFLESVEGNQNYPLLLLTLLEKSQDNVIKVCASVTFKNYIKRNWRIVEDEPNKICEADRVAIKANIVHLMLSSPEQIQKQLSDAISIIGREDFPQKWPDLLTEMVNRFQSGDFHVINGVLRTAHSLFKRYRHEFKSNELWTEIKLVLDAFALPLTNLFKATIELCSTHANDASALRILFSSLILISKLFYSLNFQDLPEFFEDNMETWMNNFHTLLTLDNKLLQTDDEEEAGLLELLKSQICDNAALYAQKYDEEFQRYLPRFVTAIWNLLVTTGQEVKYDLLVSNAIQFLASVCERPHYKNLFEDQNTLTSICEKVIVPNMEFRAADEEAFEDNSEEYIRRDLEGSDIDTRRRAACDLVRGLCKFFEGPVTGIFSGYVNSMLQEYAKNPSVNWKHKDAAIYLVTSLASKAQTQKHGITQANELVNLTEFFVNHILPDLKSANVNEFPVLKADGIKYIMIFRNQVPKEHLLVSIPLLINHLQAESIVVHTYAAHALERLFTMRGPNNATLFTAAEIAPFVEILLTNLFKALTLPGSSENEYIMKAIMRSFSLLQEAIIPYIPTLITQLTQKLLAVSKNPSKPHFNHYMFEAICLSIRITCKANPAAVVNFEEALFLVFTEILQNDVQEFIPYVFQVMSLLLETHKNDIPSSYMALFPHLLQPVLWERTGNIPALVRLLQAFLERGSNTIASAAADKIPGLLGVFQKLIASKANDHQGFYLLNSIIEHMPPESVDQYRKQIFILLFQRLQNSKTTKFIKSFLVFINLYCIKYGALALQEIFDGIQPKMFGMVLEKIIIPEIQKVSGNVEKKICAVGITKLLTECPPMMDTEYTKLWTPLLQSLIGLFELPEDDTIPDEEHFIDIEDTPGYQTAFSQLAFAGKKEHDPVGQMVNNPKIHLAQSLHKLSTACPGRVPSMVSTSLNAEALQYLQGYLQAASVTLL
UniProt P55265: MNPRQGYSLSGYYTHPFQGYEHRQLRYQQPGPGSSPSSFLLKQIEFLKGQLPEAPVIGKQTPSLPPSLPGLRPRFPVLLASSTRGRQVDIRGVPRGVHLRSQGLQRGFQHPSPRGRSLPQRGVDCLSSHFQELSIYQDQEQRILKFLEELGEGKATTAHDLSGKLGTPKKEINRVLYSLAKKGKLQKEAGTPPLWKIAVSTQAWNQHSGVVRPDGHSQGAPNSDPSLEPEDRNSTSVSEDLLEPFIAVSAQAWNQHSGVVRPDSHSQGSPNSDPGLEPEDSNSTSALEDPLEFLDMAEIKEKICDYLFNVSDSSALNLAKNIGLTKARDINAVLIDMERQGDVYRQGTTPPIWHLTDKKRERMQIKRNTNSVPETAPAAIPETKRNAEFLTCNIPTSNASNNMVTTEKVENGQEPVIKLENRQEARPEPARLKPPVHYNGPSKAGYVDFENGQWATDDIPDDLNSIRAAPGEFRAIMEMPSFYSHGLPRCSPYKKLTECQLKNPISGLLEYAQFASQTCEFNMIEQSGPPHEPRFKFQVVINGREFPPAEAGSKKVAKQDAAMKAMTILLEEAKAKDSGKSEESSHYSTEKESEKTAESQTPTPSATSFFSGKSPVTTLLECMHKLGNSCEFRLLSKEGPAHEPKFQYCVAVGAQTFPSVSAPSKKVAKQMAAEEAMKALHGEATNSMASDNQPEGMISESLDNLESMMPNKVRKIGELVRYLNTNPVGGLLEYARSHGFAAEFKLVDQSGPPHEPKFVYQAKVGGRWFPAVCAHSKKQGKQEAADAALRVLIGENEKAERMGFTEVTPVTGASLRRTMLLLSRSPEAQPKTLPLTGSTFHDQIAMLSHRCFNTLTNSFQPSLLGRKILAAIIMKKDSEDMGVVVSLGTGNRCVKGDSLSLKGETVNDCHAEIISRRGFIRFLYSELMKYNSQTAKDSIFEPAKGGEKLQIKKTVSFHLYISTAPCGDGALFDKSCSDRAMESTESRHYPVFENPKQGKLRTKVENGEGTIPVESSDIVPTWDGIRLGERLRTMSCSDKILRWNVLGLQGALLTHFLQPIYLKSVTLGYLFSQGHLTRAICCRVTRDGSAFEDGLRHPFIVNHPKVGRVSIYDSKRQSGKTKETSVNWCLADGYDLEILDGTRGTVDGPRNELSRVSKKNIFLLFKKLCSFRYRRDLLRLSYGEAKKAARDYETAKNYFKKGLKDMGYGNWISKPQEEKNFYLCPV
UniProt P52789: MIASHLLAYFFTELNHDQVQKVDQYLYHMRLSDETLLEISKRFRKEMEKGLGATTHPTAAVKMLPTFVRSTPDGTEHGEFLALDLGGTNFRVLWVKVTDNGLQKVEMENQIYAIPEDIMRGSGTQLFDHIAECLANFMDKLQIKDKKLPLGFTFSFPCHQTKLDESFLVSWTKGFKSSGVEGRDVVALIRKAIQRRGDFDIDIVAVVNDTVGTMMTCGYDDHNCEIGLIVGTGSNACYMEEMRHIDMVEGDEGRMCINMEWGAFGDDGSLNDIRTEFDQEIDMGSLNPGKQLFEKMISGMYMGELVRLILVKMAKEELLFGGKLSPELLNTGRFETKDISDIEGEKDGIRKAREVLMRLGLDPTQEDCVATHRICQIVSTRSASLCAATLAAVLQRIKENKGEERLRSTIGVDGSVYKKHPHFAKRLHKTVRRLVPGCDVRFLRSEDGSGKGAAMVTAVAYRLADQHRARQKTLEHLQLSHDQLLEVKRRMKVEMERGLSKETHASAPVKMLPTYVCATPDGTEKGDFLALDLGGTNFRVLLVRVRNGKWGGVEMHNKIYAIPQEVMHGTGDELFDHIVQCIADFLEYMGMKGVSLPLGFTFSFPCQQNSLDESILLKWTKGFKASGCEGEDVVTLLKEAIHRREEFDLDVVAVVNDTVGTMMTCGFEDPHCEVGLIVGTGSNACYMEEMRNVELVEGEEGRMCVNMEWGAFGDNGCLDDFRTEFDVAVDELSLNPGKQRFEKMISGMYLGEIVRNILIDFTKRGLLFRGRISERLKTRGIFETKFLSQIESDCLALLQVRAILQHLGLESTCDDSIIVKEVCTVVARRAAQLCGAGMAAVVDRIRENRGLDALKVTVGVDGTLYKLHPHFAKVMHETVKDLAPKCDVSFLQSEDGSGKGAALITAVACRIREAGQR
UniProt P55884, whole entry, looked up: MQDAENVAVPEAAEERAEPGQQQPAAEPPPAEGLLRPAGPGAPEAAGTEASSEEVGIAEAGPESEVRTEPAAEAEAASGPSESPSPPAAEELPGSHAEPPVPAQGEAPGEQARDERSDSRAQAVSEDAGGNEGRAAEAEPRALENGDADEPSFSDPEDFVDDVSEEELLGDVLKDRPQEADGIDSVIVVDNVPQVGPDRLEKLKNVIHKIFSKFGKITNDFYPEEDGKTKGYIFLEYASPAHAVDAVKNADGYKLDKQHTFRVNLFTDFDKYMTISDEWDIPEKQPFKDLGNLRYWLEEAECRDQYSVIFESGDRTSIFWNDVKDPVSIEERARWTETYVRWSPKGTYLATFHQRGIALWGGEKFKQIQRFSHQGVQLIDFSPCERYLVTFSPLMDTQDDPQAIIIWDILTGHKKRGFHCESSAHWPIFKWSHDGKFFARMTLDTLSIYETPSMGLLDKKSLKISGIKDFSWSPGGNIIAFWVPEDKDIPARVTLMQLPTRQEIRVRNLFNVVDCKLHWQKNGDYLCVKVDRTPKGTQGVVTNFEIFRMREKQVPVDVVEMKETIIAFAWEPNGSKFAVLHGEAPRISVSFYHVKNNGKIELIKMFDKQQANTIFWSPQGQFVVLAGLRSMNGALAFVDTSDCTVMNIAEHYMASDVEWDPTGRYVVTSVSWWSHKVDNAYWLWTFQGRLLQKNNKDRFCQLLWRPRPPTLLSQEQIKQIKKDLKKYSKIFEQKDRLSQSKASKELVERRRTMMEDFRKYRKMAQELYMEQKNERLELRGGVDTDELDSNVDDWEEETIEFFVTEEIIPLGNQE
UniProt P51809, whole entry: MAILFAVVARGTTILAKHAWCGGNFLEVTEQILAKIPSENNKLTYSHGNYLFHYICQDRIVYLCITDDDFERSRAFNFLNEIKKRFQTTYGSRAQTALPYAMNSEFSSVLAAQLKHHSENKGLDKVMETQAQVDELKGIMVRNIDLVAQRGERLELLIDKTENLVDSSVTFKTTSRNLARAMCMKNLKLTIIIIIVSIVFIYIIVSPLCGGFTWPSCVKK
UniProt P52272: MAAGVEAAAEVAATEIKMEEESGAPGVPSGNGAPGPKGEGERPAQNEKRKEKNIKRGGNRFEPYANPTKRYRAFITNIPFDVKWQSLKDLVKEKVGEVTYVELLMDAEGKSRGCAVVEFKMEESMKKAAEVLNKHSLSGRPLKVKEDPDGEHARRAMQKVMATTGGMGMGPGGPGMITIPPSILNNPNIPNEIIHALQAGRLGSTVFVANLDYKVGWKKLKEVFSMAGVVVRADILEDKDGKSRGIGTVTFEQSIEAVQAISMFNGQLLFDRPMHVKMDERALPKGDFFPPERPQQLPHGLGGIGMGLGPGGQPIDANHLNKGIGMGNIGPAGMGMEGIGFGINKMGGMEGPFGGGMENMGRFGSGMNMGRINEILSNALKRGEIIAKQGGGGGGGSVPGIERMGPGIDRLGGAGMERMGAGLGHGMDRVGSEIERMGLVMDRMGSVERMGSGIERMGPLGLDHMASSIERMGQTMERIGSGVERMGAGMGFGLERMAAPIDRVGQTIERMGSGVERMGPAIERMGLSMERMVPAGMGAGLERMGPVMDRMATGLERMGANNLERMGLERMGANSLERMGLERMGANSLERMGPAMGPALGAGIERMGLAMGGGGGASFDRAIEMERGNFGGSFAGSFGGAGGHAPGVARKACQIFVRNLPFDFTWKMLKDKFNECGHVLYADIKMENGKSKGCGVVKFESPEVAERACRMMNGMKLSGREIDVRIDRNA
UniProt P55211: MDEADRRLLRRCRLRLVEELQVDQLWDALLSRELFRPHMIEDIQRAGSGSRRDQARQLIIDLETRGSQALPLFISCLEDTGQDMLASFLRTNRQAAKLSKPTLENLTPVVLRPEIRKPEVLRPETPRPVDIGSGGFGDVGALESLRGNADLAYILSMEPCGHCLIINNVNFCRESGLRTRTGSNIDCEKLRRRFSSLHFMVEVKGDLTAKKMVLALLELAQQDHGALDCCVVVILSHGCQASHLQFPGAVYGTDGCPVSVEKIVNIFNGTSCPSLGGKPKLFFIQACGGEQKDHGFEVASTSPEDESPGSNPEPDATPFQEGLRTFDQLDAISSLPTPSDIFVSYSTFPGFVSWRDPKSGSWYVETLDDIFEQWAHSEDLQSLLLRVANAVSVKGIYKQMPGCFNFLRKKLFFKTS

Compound: COC(=O)/C=C/c1ccccc1 [methyl cinnamate]
Assay: log2 ratio of iodoacetamide-alkyne labeling of the cysteine site, DMSO over compound (competition); higher = stronger covalent engagement of the cysteine by the compound, active = 1 or more
Conditions: 500 µM; treatment time 1 h; system: HEK293T cell lysate
Method in brief: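 The log2 competition ratio per cysteine is defined as mean reporter intensity in control channels over mean reporter intensity in compound channels. Lysate from HEK293T cells (2 mg/mL) received electrophile (500 µM) or vehicle for 1 h at ambient temperature, followed by iodoacetamide alkyne for 1 h. Samples were clicked to sCIP-TMT reagents, pooled, trypsin-digested overnight at 37 °C, streptavidin-enriched, acid-eluted and run on Orbitrap Eclipse LC-MS/MS with FAIMS, with quantification in FragPipe. Three replicates with duplicate channels were used, and any cysteine quantified in only one replicate was excluded.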

log2 ratio of iodoacetamide-alkyne labeling, inactive:
CTBP2 C140 (UniProt P56545) -0.259
NUP98 C1312 (UniProt P52948) 0.278
MARS C566 (UniProt P56192) -0.0265
UniProt P60763_C178 0.167
GEMIN4 C382 (UniProt P57678) 0.224
SUCLG1 C181 (UniProt P53597) 0.3
CSE1L C272 (UniProt P55060) 0.334
ADAR C125 (UniProt P55265) 0.212
UniProt P60709_C17 -0.016
KPNA2 C223 (UniProt P52292) 0.129
MARS C287 (UniProt P56192) 0.0135
HK2 C628 (UniProt P52789) 0.275
UniProt P62244_C72 0.318
EIF3B C700 (UniProt P55884) 0.0663
VAMP7 C21 (UniProt P51809) 0.431
UniProt P61160_C20 0.00588
DSTN C23 (UniProt P60981) 0.302
NUP98 C1027 (UniProt P52948) 0.34
HNRNPF C267 (UniProt P52597) 0.256
GEMIN4 C210 (UniProt P57678) -0.000844
ACTR3 C8 (UniProt P61158) -0.0247
HSD17B4 C535 (UniProt P51659) -0.152
MARS C441 (UniProt P56192) 0.0368
HNRNPM C676 (UniProt P52272) 0.0291
UniProt P60891_C91 -0.116
ADAR C622 (UniProt P55265) 0.0381
CSE1L C939 (UniProt P55060) 0.00485
CSE1L C387 (UniProt P55060) 0.159
UniProt P62241_C174 0.0337
UniProt P60842_C66 0.205
AP3M2 C29 (UniProt P53677) 0.196
DGKE C264 (UniProt P52429) 0.19
UniProt P62244_C30 0.14
CASP9 C287 (UniProt P55211) 0.212
KPNA1 C469 (UniProt P52294) 0.158
EIF3B C420 (UniProt P55884) -0.0155
BLM C685 (UniProt P54132) -0.133

Not a retest: entries from further up.
log2 ratio of iodoacetamide-alkyne labeling, inactive:
ADAR C622 (UniProt P55265) 0.0381
CSE1L C939 (UniProt P55060) 0.00485
